PubChem BioAssay AID1259308, NCATS | 2017

Screen: 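Genes whose loss raises luciferase production in HEK293 cells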 (primary screen)
Cell system: human HEK293 embryonic kidney cells stably expressing firefly luciferase (HEK-CMV-Luc2-Hygro)
Knock-down reagent: single siRNA against human genes, 0.8 pmol siRNA per well
Time to read-out: 72 h
Detection: 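Luciferase light (ONE-Glo) measured on one replicate plate set and viability (CellTiter-Glo) on the other, scaled to a negative control siRNA, with robust z-scores and luciferase per cell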
Direction: total luciferase, z-score and total luciferase, % of control: higher = more reporter protein produced; luciferase per cell, z-score: higher = more reporter output per viable cell; viable cells, % of control: higher = more viable cells
Rule for the call: 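Active when the median/MAD z-score for overall luciferase is greater than 3; a gene was taken forward for validation with new siRNAs if at least two of its three siRNAs passed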
Calls: active = raised luciferase; inactive = no rise
The deposit covers about 59,000 reagents; below is an unselected part. About 1,510 of all reagents (2.6%) count as active. 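Calls use total luciferase alone and ignore viability, so some active siRNAs may act by altering cell number.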 Reagents against one gene are numbered here.

| target gene | reagent | total luciferase, z-score | total luciferase, % of control | luciferase per cell, z-score | viable cells, % of control | call |
| --- | --- | --- | --- | --- | --- | --- |
| AEN (apoptosis enhancing nuclease) | 1 | -0.0618 | 80.7 | 0.302 | 83.2 | inactive |
| AEN (apoptosis enhancing nuclease) | 2 | -0.333 | 75.3 | 0.0399 | 83.2 | inactive |
| AEN (apoptosis enhancing nuclease) | 3 | 0.438 | 90.6 | 0.161 | 97.1 | inactive |
| TBCC (tubulin folding cofactor C) | 1 | -1.04 | 61.2 | -0.694 | 82.1 | inactive |
| TBCC (tubulin folding cofactor C) | 2 | -1.72 | 47.7 | -1.35 | 76.1 | inactive |
| TBCC (tubulin folding cofactor C) | 3 | 1.85 | 119 | 1.41 | 91.5 | inactive |
| SPHAR (retired record) | 1 | 0.0738 | 83.4 | 0.753 | 76.4 | inactive |
| SPHAR (retired record) | 2 | -0.879 | 64.4 | -1.29 | 101 | inactive |
| SPHAR (retired record) | 3 | -0.399 | 74 | -0.0152 | 83 | inactive |
| SERTAD4 (SERTA domain containing 4) | 1 | 0.299 | 87.8 | -0.422 | 110 | inactive |
| SERTAD4 (SERTA domain containing 4) | 2 | -0.0272 | 81.3 | -0.455 | 102 | inactive |
| SERTAD4 (SERTA domain containing 4) | 3 | 0.239 | 86.6 | -0.32 | 105 | inactive |
| RAPGEF4 (Rap guanine nucleotide exchange factor 4) | 1 | -0.944 | 63.1 | -0.616 | 82.9 | inactive |
| RAPGEF4 (Rap guanine nucleotide exchange factor 4) | 2 | -0.665 | 68.7 | -1.35 | 109 | inactive |
| RAPGEF4 (Rap guanine nucleotide exchange factor 4) | 3 | -0.0403 | 81.1 | -0.259 | 97 | inactive |
| VCPKMT (valosin containing protein lysine methyltransferase) | 1 | -2.01 | 42 | -1.73 | 73.9 | inactive |
| VCPKMT (valosin containing protein lysine methyltransferase) | 2 | -0.626 | 69.4 | -0.511 | 88.8 | inactive |
| VCPKMT (valosin containing protein lysine methyltransferase) | 3 | 1.21 | 106 | 1.07 | 89.3 | inactive |
| FANCL (FA complementation group L) | 1 | -0.781 | 66.4 | -0.961 | 95.5 | inactive |
| FANCL (FA complementation group L) | 2 | 0.772 | 97.2 | 0.87 | 86.4 | inactive |
| FANCL (FA complementation group L) | 3 | -0.764 | 66.7 | -0.419 | 83.2 | inactive |
| STAM2 (signal transducing adaptor molecule 2) | 1 | -0.471 | 72.5 | -0.626 | 95.6 | inactive |
| STAM2 (signal transducing adaptor molecule 2) | 2 | -0.9 | 64 | -0.51 | 81.8 | inactive |
| STAM2 (signal transducing adaptor molecule 2) | 3 | -1.09 | 60.3 | -0.986 | 87.3 | inactive |

Reformatted: entries from further up.
target gene,reagent,"total luciferase, z-score","total luciferase, % of control","luciferase per cell, z-score","viable cells, % of control",call
AEN (apoptosis enhancing nuclease),1,-0.0618,80.7,0.302,83.2,inactive
AEN (apoptosis enhancing nuclease),2,-0.333,75.3,0.0399,83.2,inactive
AEN (apoptosis enhancing nuclease),3,0.438,90.6,0.161,97.1,inactive
TBCC (tubulin folding cofactor C),1,-1.04,61.2,-0.694,82.1,inactive
